Where a chain is given by its changes, count along the chain named. These are yes or no findings as the source states them, for the method shown. Some binding calls cover weakened binding; strength is not graded here. Values belong to the binder of their own block, whether it stands above or below them.
Columns and labels:
human IL-6 receptor [1] = target: T1, human IL-6 receptor (human, UniProt P08887 20-357, limits assumed, biotin-labeled in the ELISA and Octet assays (position not given)); experiment: phage ELISA: biotin-labeled human IL-6 receptor on a streptavidin plate, purified Fab-displaying phage, HRP anti-M13 antibody, absorbance 450 nm; with or without 10 mM ATP and adenosine
T1 construct: also called hIL-6R; biotin-labeled hIL-6R
T1 sequence: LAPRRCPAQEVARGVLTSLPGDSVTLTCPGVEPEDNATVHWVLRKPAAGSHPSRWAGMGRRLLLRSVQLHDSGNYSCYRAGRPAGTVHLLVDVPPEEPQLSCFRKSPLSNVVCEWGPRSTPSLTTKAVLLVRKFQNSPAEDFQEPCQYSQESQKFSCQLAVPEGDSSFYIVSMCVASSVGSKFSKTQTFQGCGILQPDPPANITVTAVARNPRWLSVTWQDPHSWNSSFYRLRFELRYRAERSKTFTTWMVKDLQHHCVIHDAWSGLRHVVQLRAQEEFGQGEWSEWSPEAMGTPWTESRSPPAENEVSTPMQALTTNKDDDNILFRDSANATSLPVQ

human IL-6 receptor [2] = target: T1, human IL-6 receptor; experiment: phage ELISA (Fab on phage), biotin-labeled antigen, without ATP and adenosine

- binding (human IL-6 receptor [1]): binds
- binding (human IL-6 receptor [2]): binds
B1: 6RRLSA1-6_045 (Fab, V domains shown)
VH: EVQLVESGGDLVKPGGGLRLSCAASGFTFSGYTMHWVRQAPGKGLEWVSSISSRSNHRSYADSVKGRFTISRDNAKNSLYLQMNSLRAEDTAVYYCARFGKRFDRNWVFDYWGQGTLVTVSS
VL: QSALTQPPSASGSPGQTVTISCTGTSTDVGTYNYVSWYQQHPGKAPKLMIYKTSKRPSGVPDRFSGSKSGNTASLTVSGLQAEDEADYFCSSRRYRRSLSFGGGTKLTVL

- binding (human IL-6 receptor [1]): binds
- binding (human IL-6 receptor [2]): binds
B2: 6RRLSA1-6_037 (Fab, V domains shown)
VH: B1 VH with G31T, N56G, S59H, F99Y, R102K, F103G, D104N
VL: B1 VL with T31G, K52S, S92T, R93T, R94T, R96A, R97K, S98N, L99P, S100V
